Measured values as given in publication PMC3146538.
No constants are given. Whether binding was seen depends on the method and setting. Binding seen in cells or lysates may run through a third protein. Some results given as binding are weak or reduced against the parent protein; the word gives no strength.

Protein sequences, listed by entry. Tags and fused reporters are not part of them. Lines headed by an entry give the natural chain unless they say otherwise; changes in a name come on top. Chains listed by the source or under a name are the forms on record and can include a tag or linker. Residues count along the entry.
FLAG-TSPX[Tail-L] (Q9H2G4, residues 397-693): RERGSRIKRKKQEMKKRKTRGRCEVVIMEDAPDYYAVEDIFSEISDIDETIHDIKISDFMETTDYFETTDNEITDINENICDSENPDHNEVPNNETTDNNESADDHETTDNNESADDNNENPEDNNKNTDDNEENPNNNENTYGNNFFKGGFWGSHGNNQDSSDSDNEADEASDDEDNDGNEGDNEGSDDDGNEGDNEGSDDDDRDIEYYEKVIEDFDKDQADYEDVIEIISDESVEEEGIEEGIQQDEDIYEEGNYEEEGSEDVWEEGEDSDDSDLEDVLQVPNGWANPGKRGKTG
FLAG-tagged TSPX[Δ26–108] (Q9H2G4, form named): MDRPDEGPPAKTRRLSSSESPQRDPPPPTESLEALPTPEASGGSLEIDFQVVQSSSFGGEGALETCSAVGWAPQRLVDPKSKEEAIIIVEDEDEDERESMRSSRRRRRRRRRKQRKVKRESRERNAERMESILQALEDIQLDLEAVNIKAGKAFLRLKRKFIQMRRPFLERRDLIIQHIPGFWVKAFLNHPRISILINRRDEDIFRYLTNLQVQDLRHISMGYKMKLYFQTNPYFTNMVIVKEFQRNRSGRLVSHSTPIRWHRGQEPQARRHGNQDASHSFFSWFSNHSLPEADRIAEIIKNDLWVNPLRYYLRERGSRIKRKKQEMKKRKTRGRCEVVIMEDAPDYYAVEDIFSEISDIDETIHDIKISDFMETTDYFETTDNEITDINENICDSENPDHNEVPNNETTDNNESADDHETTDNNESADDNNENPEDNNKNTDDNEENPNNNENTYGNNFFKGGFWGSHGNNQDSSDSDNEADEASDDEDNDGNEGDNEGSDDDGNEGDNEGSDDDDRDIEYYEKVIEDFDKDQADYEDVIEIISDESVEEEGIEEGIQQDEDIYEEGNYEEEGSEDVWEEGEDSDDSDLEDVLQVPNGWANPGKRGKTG
UniProt P03165: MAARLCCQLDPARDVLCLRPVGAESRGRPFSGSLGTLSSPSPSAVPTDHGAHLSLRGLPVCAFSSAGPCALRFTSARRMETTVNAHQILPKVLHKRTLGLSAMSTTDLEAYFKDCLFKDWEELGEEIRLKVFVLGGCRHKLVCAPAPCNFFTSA

Tests used:
[1] = target: FLAG-tagged TSPX[Δ26–108] (human) (UniProt Q9H2G4); assay: co-IP
[2] = target: FLAG-TSPX[Tail-L] (human) (UniProt Q9H2G4); assay: co-IP

Substance: Hemagglutinin (HA) epitope-tagged HBx (from UniProt P03165 1-154)
- binding [1]: binds
- binding [2]: binds
